Results from PubChem BioAssay AID1671190 (National Center for Advancing Translational Sciences (NCATS), 2021).
About 6,100 (1.1%) of roughly 580,000 compounds were called active. Inconclusive results, whose numbers are uncertain, are shown with a selection of clear calls. Calls follow the shape of the dose curve; as a rule, active = well fitted inhibition curve with a large enough effect; inconclusive = small, poorly fitted or top-dose-only effect, or another doubt; inactive = no such curve, though single readings can be large or run the other way. Potencies beside an inconclusive call are fits to weak or partial responses and may not hold up.

Chains of the proteins cited; added tags and fusions are not shown. Lines headed by an entry give the natural chain unless they say otherwise; changes in a name come on top.
UniProt P18054: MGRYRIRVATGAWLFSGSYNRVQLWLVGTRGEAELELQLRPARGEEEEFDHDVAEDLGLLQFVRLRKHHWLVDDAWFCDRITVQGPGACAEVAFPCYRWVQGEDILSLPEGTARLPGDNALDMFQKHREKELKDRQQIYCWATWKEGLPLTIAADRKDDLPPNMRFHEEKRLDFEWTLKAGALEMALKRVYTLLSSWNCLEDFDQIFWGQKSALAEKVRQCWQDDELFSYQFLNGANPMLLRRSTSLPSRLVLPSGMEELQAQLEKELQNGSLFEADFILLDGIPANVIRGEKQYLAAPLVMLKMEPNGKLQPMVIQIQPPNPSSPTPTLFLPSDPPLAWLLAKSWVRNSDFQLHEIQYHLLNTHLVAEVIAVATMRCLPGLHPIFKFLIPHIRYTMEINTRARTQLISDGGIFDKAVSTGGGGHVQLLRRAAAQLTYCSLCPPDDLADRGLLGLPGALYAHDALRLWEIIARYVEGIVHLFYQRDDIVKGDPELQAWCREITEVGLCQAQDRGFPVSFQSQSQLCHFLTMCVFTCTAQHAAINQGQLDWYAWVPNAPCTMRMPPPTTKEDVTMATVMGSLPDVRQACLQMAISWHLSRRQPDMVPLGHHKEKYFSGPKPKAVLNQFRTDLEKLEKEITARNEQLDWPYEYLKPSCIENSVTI

molecular target: Polyunsaturated fatty acid lipoxygenase ALOX12 (Homo sapiens) (UniProt P18054); experiment: Primary qHTS assay for inhibitors of human arachidonate 12S-lipoxygenase (ALOX12): Round 2; settings: purified 12hLO, xylenol orange hydroperoxide absorbance; activity change, negative = inhibition: at 108 µM (top of the series) unless noted
Method in brief: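 Hydroperoxide product was detected by ferrous iron/xylenol orange as the 573 to 405 nm absorbance ratio. Arachidonic acid at 40 uM (final) was turned over for 30 min at room temperature by 150 nM human 12hLO, pH 7.0 Hepes buffer, after 15 min compound preincubation.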
% is scaled to controls: 0 for no effect and ±100 for the full control effect; potency is read from the fitted curve at half-maximal effect.

Row | Compound | Potency | activity change, negative = inhibition
1 | O=C(N[C@H]1CO[C@H]2[C@@H]1OC[C@@H]2Nc1nccc(-c2ccco2)n1)c1ccco1 | inconclusive: 10 µM [inhibitor, full curve, poor fit] | 
2 | O=C(CN1CCN(C2CCCCC2)CC1)c1c[nH]c2ccccc12 | inconclusive: 3.16 µM [inhibitor, full curve, poor fit] | 
3 | CC(C)CCNC(=O)N1CCC2(CC1)NC(=O)c1ccccc1O2 |  | inactive: 6.77%
4 | COc1ccc(Cl)cc1NC(=S)NCCCN1CCCC1=O |  | inactive: 13.8%
5 | Cc1ccc(NC(=O)c2c([N+](=O)[O-])cnn2C)cc1C | inconclusive: 44.7 µM [inhibitor, partial curve, poor fit] | 
6 | C/C(=N/NC(=O)c1cccs1)c1ccc(-c2ccccc2)cc1 | inconclusive: 10 µM [inhibitor, partial curve, poor fit] | 
7 | O=C(O)C(c1c[nH]c2ccc(CO)cc12)N1CCN(Cc2cccs2)CC1 (configuration not stated) | inconclusive: 12.6 µM [inhibitor, full curve, poor fit] | 
8 | COc1ccc(CN2CC(CN[S+](=O)([O-])c3ccccc3)C3(C2)CN(c2ccccc2)C3)cc1O (configuration not stated) | inconclusive: 7.94 µM [inhibitor, full curve] | 
9 | CNc1ccc(Br)cc(C(=O)/C=C/c2cccc(Cl)c2Cl)c1=O | active: 6.31 µM | 
10 | CCOC(=O)c1cccc(NS(=O)(=O)c2cc(-c3nn(C)c(=O)c4c3CCCC4)ccc2C)c1 |  | inactive: 10.8%
11 | CC(C)(C)c1cc(C[C@H]2CNCC[C@H]2CC(=O)NC2CCCCC2)no1 | inconclusive: 28.2 µM [inhibitor, full curve] | 
12 | CCOC(=O)c1c(C)oc2ccc(N(C(=O)c3ccncc3)S(=O)(=O)c3ccc(F)cc3C)cc12 |  | inactive: -19.1%
13 | Cn1cccc1CC(=O)NNC(=S)NC(=O)c1ccc(F)cc1 | inconclusive: 31.6 µM [inhibitor, single point] | 
14 | CC(C)SCC(=O)Nc1ncc2c(n1)-c1ccccc1CC2 | inconclusive: 50.1 µM [inhibitor, partial curve, poor fit] | 
15 | O=C(Nc1ccc(Cl)cc1)C1CCN(C(=O)NC2CCCCC2)CC1 | inconclusive: 70.8 µM [inhibitor, partial curve, poor fit] | 
16 | O=C(Cn1c(=O)n(-c2ccccc2)c(=O)c2c3c(sc21)CCC3)c1ccc(Br)cc1 | inconclusive: 56.2 µM [inhibitor, partial curve, poor fit] | 
17 | O=C(COC(=O)c1ccc2c(c1)-c1ccccc1C2=O)c1cccc([N+](=O)[O-])c1 |  | inactive: 4.39%
18 | O=C(/C=C/c1ccco1)NCc1ccco1 |  | inactive: 0%
19 | CCOC(=O)[C@]12CCCC=C1N(CCC1=CCCCC1)C(=O)[C@H](CC(=O)NCc1ccccc1)C2 | inconclusive: 0.447 µM [inhibitor, full curve, poor fit] | 
20 | O=C(CN(Cc1ccccc1)S(=O)(=O)c1cccc(C(F)(F)F)c1)NC1CCCCC1 |  | inactive: 0.501%
21 | CCCNC(=O)c1ccc(Cl)nc1 | inconclusive: 44.7 µM [inhibitor, partial curve, poor fit] | 
22 | Cn1cc(/C=N\NC(=O)C2COc3ccccc3O2)c2ccccc21 (configuration not stated) |  | inactive: 21.2%
23 | NC(=S)NN=C1CCCCC12CCCC2 | inconclusive: 35.5 µM [inhibitor, partial curve, poor fit] | 
24 | COc1ccc(OC)c(NC(=O)COC(=O)/C=C/c2ccco2)c1 | inconclusive: 79.4 µM [inhibitor, single point] | 

In the list so far, these contain an NH in an aromatic ring.
Row | Compound | Potency | activity change, negative = inhibition
2 | O=C(CN1CCN(C2CCCCC2)CC1)c1c[nH]c2ccccc12 | inconclusive: 3.16 µM [inhibitor, full curve, poor fit] | 
7 | O=C(O)C(c1c[nH]c2ccc(CO)cc12)N1CCN(Cc2cccs2)CC1 (configuration not stated) | inconclusive: 12.6 µM [inhibitor, full curve, poor fit] | 

The list goes on:

Row | Compound | Potency | activity change, negative = inhibition
25 | CN(CCc1ccccn1)c1ncccc1CNC(=O)c1cc(C2CC2)no1 |  | inactive: 11.3%
26 | CC(C)Oc1ccccc1-c1cc(C(=O)O)c2ccccc2n1 | inconclusive: 25.1 µM [inhibitor, single point] | 
27 | CSc1ccc(/C=N/NC(=O)CNc2ccc3ccccc3c2)cc1 | inconclusive: 44.7 µM [inhibitor, partial curve, poor fit] | 
28 | Cc1ccccc1N(C(=O)CCCC(=O)Nc1ccccn1)C(C(=O)NC1CCCC1)c1ccc(O)cc1 (configuration not stated) |  | inactive: -18.8%
29 | COc1ccc(CCNC(=O)CN2C(=O)c3ccccc3S2(=O)=O)cc1 | inconclusive: 0.794 µM [inhibitor, partial curve, poor fit] | 
30 | Cc1onc(C(=O)Nc2cccnc2Cl)c1[N+](=O)[O-] |  | inactive: 0.803%
31 | Nc1ccccc1SCc1c(Cl)cccc1Cl |  | inactive: -1.88%
32 | CC1(C)OC(=O)C(=NNc2ccccc2C(=O)O)C(=O)O1 | inconclusive: 3.16 µM [inhibitor, full curve, poor fit] | 
33 | CC(C(=O)N(C)C1(C#N)CCCCC1)N(C)CC(=O)Nc1cccc(F)c1 (configuration not stated) |  | inactive: -5.52%
34 | COc1ccc(N2CCN(C(=O)CSc3ccccc3N)CC2)cc1 | inconclusive: 17.8 µM [inhibitor, partial curve, poor fit] | 
35 | CC1=C/C(=C/N(C)C)C(=O)O1 |  | inactive: -0.624%
36 | CC1(C(=O)NS(=O)(=O)c2cccc(Cl)c2)CCN1C(=O)C1(c2ccccc2)CC1 (configuration not stated) | inconclusive: 44.7 µM [inhibitor, partial curve] | 
37 | CCOc1cc(S(=O)(=O)NC2CC2)c(OCC)cc1-n1cnnn1 |  | inactive: -8.19%
38 | CC(=O)NCCc1nc2ccccc2n1Cc1ccc(C)cc1 |  | inactive: 14.8%
39 | OCCNCCOc1ccccc1-c1ccccc1 |  | inactive: -20.1%
40 | O=C(NCc1cc2n(n1)CCNC2)c1ccc(Cn2cnnn2)cc1 | inconclusive: 20 µM [inhibitor, full curve] | 
41 | Cc1cccc(N(C)C(=O)CN2C(=O)NC3(CCC(C)CC3)C2=O)c1 (configuration not stated) |  | inactive: 17.5%
42 | Cc1cc(COc2ccc(S(=O)(=O)c3ccccc3)cc2)on1 |  | inactive: 12.9%
43 | CN(C)c1ccc(O)c2c1CC1CC3[C@@H](N(C)C)C(=O)C(C(N)=O)C(=O)[C@]3(O)C(=O)C1C2=O (some centres not stated) |  | inactive: 1.8%
44 | COC(=O)Cc1sc(-c2ccccn2)nc1-c1ccccc1 | inconclusive: 44.7 µM [inhibitor, partial curve, poor fit] | 
45 | COc1ccc(NC(=O)CN(C)C(=O)CC2CCCC2)cc1 |  | inactive: -18.4%
46 | CCNC(=O)N1CCOc2ccc(CCC(=O)NCCOc3ccccc3OC)cc2C1 |  | inactive: 22.2%
47 | CCn1c(CSCc2ccc(C)cc2)n[nH]c1=S | inconclusive: 70.8 µM [inhibitor, partial curve, poor fit] | 
48 | O=C(c1ccoc1)N1CCN(c2cc(-c3ccccc3)nc3cc(-c4ccccc4)nn23)CC1 | inconclusive: 44.7 µM [inhibitor, partial curve, poor fit] | 

Full records, looked up by structure.
`CC1=C/C(=C/N(C)C)C(=O)O1` is listed as activity change, negative = inhibition: inactive: -0.624%
`COc1ccc(Cl)cc1NC(=S)NCCCN1CCCC1=O` is listed as activity change, negative = inhibition: inactive: 13.8%

Next results.

Row | Compound | Potency | activity change, negative = inhibition
49 | O=C(O)c1cc([N+](=O)[O-])ccc1N1CCCCC1 |  | inactive: -28.8%
50 | O=C(Cc1cccs1)Nc1cccc(-c2nnc(-c3ccco3)o2)c1 |  | inactive: 1.32%
51 | COc1ccc([N+](=O)[O-])cc1NC(=O)c1cccs1 | inconclusive: 1.78 µM [inhibitor, full curve, poor fit] | 
52 | c1cn(-c2cc(-c3ccc4c(c3)OCO4)ncn2)cn1 | inconclusive: 50.1 µM [inhibitor, partial curve, poor fit] | 
53 | Cc1ccc(C)c(OCCn2cc(C(=O)c3cccs3)c3ccccc32)c1 |  | inactive: -13.2%
54 | Cc1cc(Cl)ccc1C(=O)C1CCCN(C(=O)c2ccc3c(c2)OCO3)C1 (configuration not stated) | inconclusive: 56.2 µM [inhibitor, partial curve, poor fit] | 
55 | CCCCNC(=O)Cc1c(C)[nH]c2ccc(CC)cc12 |  | inactive: -19.5%
56 | C=CCOC(=O)C1=C[C@@H](c2ccc(Br)cc2)C[C@@H](OCCCCO)O1 | inconclusive: 39.8 µM [inhibitor, partial curve, poor fit] | 
57 | O=C(CCCOC(=O)c1c(Cl)ccc(Cl)c1Cl)c1ccc(F)cc1 |  | inactive: -43.6%
58 | COc1cc2c(cc1OC)C(c1ccccc1C(F)(F)F)CC(=O)N2 (configuration not stated) | inconclusive: 3.16 µM [inhibitor, full curve, poor fit] | 
59 | Cc1ccc(C(=O)N2CCC3(CC2)NC(=O)N(Cc2ccc(F)cc2)C3=O)cc1F | inconclusive: 35.5 µM [inhibitor, partial curve] | 
60 | O=C(NC1CCCCC1)c1ccc2ccccc2c1 |  | inactive: 14.1%
61 | CC(=O)N1CCC(C(=O)Nc2ccc(Br)cc2F)CC1 |  | inactive: 4.21%
62 | CCC(CC)C(=O)Nc1cccc(C(=O)Nc2ccc(S(=O)(=O)Nc3ccc(C)cc3)cc2)c1 | inconclusive: 50.1 µM [inhibitor, partial curve, poor fit] | 
63 | O=C(O)C[C@@H]1CCN(C(=O)c2cccs2)C[C@@H]1CCN1CCN(c2cccc(C(F)(F)F)c2)CC1 | inconclusive: 17.8 µM [inhibitor, single point] | 
64 | COc1cccc(C(c2nnnn2Cc2ccccc2)N2CCN(C(=O)c3ccco3)CC2)c1OC (configuration not stated) | inconclusive: 39.8 µM [inhibitor, partial curve, poor fit] | 
65 | COc1cc2c(cc1NC(=S)Nc1cccc(C(F)(F)F)c1)oc1ccccc12 | inconclusive: 39.8 µM [inhibitor, partial curve, poor fit] | 
66 | COc1ccc2c(c1)OCC(CNC(=O)c1ccc(N3CCN(C)CC3)cc1)C2 (configuration not stated) |  | inactive: 13.6%
67 | O=C(CCc1cccc(Cl)c1Cl)NC1CCN(C2CC2)C1 (configuration not stated) | inconclusive: 7.08 µM [inhibitor, full curve, poor fit] | 
68 | Cc1c(P(=O)(c2ccccc2)c2ccccc2)c2ccccc2n1C | active: 20 µM | 
69 | COc1ccc(C(=O)N2CCCC2)c(OC2CCN(C(=O)C3C=CCN3)CC2)c1 (configuration not stated) | inconclusive: 10 µM [inhibitor, full curve] | 
70 | Cc1ccc(S(=O)(=O)NCc2ccccc2NS(=O)(=O)c2ccc(C)cc2)cc1 | inconclusive: 89.1 µM [inhibitor, partial curve, poor fit] | 
71 | COc1ccc(CNC(=O)Cn2c(=O)c3c(C)cc(C)nc3n(-c3ccccc3OC)c2=O)cc1 |  | inactive: -5.86%
72 | CCOc1ccc(/C(CCC(=O)O)=N/NC(=S)NCCc2ccccc2)cc1 | inconclusive: 44.7 µM [inhibitor, partial curve, poor fit] | 
